Assay [1] deals with histone deacetylase HDAC3 (human (endogenous in HeLa)) (UniProt O15379). Nature of the assay: co-IP; lysates (2 mg) of HeLa cells synchronised in S, G2, early mitosis (P), late mitosis (A) and G1; immunoprecipitated with a monoclonal anti-HDAC3 antibody, blotted for NudC (R2 antibody); IgG as antibody control.
The target in assay [2] is EGFP-NudC WT (human) (UniProt Q9Y266). Kind of assay: co-IP; HeLa cells transfected with EGFP-NudC WT, K39R or K39Q for 24 h, enriched in mitosis (thymidine and nocodazole block and release); lysates (2 mg) immunoprecipitated with GFP antibody, blotted for HDAC3, Plk1 and GFP; IgG as antibody control.

Sequences of proteins named here, by UniProt entry; tags and fusion partners are left off.
UniProt O15379: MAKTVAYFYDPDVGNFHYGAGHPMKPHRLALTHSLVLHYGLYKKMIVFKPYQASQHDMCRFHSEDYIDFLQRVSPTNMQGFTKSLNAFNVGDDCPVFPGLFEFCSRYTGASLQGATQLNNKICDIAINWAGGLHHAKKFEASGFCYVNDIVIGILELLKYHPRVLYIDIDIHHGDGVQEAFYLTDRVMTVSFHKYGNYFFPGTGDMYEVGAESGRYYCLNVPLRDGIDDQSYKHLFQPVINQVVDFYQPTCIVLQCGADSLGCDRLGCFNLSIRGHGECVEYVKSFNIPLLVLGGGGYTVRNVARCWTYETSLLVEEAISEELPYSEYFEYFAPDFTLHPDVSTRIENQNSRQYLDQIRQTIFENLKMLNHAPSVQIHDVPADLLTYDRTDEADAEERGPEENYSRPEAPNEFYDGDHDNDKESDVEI
UniProt Q9Y266: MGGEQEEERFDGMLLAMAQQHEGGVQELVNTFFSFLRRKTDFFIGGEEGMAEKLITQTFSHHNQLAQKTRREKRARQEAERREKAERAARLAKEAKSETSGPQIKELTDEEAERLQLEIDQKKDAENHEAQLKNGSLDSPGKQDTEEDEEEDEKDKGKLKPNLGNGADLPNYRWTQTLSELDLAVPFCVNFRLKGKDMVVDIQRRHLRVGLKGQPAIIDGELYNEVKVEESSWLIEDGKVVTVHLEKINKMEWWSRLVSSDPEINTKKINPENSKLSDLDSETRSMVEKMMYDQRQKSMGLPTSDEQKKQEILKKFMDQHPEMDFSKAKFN
UniProt P53350: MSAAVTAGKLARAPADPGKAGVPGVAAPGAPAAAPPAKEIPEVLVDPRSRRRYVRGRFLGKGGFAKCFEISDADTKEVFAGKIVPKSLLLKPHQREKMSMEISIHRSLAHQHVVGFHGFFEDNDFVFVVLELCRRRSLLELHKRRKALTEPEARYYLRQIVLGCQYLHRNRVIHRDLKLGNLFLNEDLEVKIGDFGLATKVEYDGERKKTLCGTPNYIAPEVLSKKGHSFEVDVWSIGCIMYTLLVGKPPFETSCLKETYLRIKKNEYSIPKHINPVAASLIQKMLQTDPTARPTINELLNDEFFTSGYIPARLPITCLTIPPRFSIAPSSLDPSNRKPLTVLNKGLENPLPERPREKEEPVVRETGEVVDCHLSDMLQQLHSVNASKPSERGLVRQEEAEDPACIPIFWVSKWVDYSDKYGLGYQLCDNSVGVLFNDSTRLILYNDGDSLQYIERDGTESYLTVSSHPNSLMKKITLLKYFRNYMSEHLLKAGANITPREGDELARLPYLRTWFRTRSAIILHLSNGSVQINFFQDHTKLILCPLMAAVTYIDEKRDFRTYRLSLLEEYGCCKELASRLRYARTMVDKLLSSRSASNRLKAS

Results are given in words; binding and its absence hold for the method and conditions named. In cells and extracts the contact can be indirect. Some results given as binding are weak or reduced against the parent protein; the word gives no strength.

We go through two substances from article PMC3777959.

With “Nuclear distribution protein C (NudC) (from UniProt Q9Y266 1-331)”, in assay [1], the binding result is listed as “binds”. Consider “polo-like kinase 1 (Plk1) (from UniProt P53350 1-603) (enzyme)”, for which the binding entry in assay [2] is reported as “binds”.
